# Results: paper PMC12356253
# Sequences of proteins named here, by UniProt entry; tags and fusion partners are left off. Residues count along the entry.
# UniProt P31040, residues 43-664: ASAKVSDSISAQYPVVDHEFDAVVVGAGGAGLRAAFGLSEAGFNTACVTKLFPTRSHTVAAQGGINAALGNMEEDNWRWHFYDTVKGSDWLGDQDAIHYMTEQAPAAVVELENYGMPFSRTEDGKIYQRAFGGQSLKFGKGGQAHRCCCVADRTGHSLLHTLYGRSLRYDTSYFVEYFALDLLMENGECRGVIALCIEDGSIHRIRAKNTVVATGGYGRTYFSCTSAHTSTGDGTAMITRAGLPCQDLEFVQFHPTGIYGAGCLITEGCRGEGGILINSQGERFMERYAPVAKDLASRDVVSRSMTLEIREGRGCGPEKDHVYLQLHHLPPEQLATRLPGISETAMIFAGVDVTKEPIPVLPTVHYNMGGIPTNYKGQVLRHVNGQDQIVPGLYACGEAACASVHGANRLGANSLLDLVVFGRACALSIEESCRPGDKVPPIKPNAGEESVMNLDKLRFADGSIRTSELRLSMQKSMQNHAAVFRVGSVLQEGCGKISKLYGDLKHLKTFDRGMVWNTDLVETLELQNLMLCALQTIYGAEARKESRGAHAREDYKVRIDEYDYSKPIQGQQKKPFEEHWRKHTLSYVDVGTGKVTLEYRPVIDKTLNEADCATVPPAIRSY
# No constants are given. Whether binding was seen depends on the method and setting. Binding seen in cells or lysates may run through a third protein. A yes stands for co-enrichment or nearness to the bait. Other partners may have been found. Where a sequence is shown, tags or fusion partners need not be part of it.
# Tests used:
# SDHAF2^FLAG (human) = biological target: T1, SDHAF2^FLAG (human) (UniProt Q9NX18); test: affinity purification with mass spectrometry; IPMS: cells solubilised in 20 mM tris-Cl pH 7.4, 50 mM NaCl, 10% glycerol, 0.1 mM EDTA, 1% digitonin, benzonase; FLAG beads, 2 hours at 4°C; eluted with FLAG peptide; LC-MS/MS; for SDHAF2^FLAG also at increasing concentrations of doxycycline
# T1 sequence: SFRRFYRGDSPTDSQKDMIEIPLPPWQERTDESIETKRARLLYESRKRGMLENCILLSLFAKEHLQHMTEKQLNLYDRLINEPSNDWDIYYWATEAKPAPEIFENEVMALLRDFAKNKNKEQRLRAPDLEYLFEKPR
# SDHB^FLAG = biological target: T2, SDHB^FLAG (UniProt P21912); test: as above
# T2 sequence: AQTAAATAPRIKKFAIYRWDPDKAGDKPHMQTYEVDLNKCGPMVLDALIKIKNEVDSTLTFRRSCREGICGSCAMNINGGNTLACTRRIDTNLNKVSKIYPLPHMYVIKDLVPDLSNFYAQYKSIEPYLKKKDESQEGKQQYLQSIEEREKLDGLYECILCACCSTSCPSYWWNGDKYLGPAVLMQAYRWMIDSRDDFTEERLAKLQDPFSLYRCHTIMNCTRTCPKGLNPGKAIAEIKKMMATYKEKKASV
binding (SDHAF2^FLAG (human)),binding (SDHB^FLAG),Substance
binds,binds,flavinated-SDHA (from UniProt P31040 43-664)
binds,–,unmodified SDHA (from UniProt P31040 43-664)
binds,–,SDHA (from UniProt P31040 43-664)
